Experimental data taken from article PMC9732051, “Divergent self-association properties of paralogous proteins TRIM2 and TRIM3 regulate their E3 ligase activity” (Nature Communications, 2022).
Results are given in words; binding and its absence hold for the method and conditions named. Binding seen in cells or lysates may run through a third protein. Sequences can lack the tags named with a protein.

What was measured:
[1] = target: T1, TRIM3-FLAG full length (human) (UniProt O75382); test: co-IP; EGFP-TRIM2 and FLAG-TRIM3 constructs overexpressed in HEK293T; IP with anti-GFP and Protein A/G beads or with FLAG M2 beads; 0.5% IGEPAL, 150 mM NaCl, 50 mM Tris-HCl pH 7.5, 5 mM MgCl2; for truncation mutants cells treated with 10 μM MG132 6 h
T1 sequence: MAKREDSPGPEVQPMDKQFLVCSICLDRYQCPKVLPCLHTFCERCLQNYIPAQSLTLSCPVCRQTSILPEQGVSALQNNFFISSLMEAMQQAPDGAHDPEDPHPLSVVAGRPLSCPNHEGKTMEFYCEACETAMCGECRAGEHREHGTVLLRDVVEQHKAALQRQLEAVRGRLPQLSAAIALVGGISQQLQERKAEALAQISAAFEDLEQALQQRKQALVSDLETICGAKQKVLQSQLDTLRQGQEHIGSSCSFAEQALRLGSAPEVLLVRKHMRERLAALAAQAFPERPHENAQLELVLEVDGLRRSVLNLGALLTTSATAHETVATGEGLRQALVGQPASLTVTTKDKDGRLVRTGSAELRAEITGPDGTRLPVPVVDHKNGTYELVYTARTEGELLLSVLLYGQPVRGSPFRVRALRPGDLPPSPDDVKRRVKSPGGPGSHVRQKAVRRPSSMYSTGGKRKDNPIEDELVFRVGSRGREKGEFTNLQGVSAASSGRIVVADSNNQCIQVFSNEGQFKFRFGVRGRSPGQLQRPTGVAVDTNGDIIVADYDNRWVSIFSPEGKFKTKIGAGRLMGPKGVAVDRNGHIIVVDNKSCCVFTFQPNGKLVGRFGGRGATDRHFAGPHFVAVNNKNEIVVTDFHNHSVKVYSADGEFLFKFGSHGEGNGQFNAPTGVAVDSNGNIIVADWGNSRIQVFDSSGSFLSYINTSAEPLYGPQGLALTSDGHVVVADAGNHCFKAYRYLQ

[2] = target: T2, EGFP-TRIM2 full length (human) (UniProt Q9C040); test: as above
T2 sequence: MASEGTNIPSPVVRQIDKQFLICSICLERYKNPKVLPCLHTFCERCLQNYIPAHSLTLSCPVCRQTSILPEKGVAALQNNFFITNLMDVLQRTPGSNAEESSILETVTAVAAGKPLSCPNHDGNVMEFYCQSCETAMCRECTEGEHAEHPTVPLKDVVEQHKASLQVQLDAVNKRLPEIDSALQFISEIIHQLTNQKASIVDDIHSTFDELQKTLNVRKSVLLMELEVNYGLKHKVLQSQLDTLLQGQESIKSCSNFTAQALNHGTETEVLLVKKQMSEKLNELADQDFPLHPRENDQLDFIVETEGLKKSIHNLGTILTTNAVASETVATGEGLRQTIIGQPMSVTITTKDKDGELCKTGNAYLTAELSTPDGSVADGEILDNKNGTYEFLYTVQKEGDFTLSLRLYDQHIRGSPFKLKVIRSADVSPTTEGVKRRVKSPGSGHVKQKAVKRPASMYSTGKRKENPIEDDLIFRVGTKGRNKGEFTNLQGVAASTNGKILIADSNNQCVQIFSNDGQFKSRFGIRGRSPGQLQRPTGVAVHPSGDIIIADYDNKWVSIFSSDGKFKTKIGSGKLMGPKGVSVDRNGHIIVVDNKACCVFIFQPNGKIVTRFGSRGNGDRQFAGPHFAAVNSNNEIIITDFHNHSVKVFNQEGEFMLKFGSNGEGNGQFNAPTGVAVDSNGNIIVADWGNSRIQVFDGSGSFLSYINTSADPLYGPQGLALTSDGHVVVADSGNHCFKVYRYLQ

| binding [1] | binding [2] | Substance |
| --- | --- | --- |
| no binding | – | EGFP-TRIM2 truncation mutant without the filamin domain (human) (domain or fragment) |
| – | no binding | FLAG-TRIM3 truncation mutant without the coiled-coil domain (human) (domain or fragment) |
